From PubChem BioAssay AID2662 (National Center for Advancing Translational Sciences (NCATS), 2010)
About 110 (0.038%) of roughly 290,000 compounds were called active. The shares of active, inactive and inconclusive entries below differ from those in the screen. Calls follow the shape of the dose curve; as a rule, active = well fitted inhibition curve with a large enough effect in the polarisation, with a control signal flat (not every such curve was filed as active); inconclusive = small, poorly fitted or top-dose-only effect, or effect the other way, or a change in a side signal; inactive = no such curve, though single readings can be large or run the other way; the % refers to the polarisation. A potency beside an inconclusive call is a rough fit, not a confirmed value. A note “side channel” means that the fit belongs to a control or component signal, not to the main read-out.

By UniProt entry, the sequences of proteins in these tests, tags left out.
UniProt Q03164, whole entry, looked up: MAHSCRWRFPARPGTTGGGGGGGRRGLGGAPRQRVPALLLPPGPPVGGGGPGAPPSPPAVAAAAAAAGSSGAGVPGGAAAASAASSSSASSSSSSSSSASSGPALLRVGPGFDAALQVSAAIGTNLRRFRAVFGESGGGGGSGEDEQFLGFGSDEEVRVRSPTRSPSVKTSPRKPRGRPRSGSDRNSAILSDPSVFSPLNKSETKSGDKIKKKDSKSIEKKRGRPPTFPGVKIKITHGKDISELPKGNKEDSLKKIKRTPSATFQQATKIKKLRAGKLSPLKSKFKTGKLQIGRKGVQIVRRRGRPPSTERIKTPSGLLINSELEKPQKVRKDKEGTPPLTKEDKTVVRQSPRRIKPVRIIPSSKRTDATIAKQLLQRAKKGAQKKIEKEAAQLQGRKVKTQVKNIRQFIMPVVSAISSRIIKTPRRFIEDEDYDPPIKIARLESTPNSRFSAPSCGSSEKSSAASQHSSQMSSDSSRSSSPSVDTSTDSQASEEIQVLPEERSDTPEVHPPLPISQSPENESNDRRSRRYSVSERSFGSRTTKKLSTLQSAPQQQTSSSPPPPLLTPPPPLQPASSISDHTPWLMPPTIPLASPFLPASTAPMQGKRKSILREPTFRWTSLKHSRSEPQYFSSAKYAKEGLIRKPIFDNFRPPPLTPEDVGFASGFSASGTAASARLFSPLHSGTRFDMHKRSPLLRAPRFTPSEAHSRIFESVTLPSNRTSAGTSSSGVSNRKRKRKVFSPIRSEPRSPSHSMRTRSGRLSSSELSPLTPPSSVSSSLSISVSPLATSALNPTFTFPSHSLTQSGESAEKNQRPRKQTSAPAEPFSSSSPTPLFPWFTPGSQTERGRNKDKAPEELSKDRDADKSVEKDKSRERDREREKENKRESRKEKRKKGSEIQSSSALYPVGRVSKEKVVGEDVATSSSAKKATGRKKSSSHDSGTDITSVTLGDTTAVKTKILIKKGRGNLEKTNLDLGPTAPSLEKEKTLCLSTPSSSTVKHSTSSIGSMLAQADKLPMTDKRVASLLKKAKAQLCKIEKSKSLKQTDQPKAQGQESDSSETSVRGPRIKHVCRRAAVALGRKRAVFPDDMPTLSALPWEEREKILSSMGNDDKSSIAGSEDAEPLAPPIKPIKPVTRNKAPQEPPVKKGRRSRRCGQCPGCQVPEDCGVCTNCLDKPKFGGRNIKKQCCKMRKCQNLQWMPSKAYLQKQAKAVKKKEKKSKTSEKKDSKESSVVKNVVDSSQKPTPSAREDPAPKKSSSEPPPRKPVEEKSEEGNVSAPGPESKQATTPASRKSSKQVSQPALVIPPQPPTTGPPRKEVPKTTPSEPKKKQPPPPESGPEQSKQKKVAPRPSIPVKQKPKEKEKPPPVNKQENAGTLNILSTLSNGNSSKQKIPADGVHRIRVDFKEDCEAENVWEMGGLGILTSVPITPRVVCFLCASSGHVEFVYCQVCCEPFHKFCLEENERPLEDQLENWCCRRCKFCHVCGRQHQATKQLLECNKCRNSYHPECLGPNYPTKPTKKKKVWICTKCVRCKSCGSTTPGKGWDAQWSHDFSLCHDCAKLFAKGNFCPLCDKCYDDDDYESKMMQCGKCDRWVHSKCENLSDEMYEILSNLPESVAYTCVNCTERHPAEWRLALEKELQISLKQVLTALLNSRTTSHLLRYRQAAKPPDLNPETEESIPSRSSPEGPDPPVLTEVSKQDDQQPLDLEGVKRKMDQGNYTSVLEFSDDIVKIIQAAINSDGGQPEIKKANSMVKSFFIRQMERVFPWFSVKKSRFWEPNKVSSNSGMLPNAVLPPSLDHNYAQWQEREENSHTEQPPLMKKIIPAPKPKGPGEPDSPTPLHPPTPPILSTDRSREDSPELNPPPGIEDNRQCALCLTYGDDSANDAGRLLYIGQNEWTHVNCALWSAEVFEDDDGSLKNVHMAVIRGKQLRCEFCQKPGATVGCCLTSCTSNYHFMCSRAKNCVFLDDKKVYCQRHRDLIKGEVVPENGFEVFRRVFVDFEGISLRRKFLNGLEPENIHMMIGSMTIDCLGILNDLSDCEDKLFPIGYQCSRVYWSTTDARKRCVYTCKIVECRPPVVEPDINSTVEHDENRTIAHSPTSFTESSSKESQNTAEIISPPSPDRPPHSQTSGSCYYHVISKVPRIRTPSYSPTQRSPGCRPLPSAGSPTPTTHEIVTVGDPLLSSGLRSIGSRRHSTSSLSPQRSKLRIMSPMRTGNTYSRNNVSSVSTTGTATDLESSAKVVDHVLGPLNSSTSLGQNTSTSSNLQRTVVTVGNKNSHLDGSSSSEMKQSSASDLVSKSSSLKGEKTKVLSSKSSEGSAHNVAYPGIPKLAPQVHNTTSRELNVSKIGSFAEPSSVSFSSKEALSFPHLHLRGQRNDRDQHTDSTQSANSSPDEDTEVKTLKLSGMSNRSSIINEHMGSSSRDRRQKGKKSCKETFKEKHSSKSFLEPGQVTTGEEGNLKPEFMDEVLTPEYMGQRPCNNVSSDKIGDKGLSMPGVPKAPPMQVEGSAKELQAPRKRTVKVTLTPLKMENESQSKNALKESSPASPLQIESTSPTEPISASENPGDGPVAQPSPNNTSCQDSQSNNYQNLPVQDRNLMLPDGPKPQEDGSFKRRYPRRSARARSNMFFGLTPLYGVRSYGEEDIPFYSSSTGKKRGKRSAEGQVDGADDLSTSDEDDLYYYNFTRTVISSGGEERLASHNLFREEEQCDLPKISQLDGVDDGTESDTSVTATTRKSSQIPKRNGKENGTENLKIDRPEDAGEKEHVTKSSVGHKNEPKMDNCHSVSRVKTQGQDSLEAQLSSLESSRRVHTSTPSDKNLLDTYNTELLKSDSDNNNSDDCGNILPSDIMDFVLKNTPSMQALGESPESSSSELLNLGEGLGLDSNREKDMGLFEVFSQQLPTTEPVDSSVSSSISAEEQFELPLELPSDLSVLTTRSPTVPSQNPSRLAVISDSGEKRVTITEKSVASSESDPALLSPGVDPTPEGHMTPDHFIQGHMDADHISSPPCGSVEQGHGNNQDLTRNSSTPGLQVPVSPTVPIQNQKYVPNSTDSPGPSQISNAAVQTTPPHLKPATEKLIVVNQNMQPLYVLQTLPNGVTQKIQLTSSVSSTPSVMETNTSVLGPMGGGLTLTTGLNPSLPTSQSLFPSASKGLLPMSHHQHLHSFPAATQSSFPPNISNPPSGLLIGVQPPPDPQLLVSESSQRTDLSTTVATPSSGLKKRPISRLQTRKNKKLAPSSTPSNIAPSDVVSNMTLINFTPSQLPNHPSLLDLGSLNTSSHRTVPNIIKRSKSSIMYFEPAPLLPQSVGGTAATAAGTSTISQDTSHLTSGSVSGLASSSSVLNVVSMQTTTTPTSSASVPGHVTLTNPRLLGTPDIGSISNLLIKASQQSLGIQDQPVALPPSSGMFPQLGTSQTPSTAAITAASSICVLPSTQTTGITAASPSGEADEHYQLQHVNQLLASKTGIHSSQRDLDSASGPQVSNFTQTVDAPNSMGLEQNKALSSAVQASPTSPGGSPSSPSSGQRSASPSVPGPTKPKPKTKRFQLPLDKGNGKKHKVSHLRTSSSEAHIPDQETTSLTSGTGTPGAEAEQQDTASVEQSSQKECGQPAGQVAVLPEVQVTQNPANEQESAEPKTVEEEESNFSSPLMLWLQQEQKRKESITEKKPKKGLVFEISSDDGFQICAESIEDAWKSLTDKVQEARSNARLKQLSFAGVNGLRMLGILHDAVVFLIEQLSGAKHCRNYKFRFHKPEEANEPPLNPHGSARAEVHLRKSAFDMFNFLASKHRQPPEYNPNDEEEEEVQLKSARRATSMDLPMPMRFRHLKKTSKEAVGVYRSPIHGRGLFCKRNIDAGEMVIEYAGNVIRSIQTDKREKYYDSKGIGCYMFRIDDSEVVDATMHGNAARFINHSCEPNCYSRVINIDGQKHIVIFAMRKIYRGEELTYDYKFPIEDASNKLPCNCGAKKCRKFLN

What follows are compounds tested against Histone-lysine N-methyltransferase 2A (Homo sapiens) (UniProt Q03164) (assay: qHTS Fluorescence Polarization Assay for Inhibitors of MLL CXXC domain - DNA interaction). Conditions: MLL-CXXC / FITC-HOXA9 DNA fluorescence polarization; activity change, negative = inhibition: at 115 µM (top of the series).
In short: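 Steps: dispense CXXC domain solution (7 uM) → pin compounds or unlabeled HOX-A9 DNA control → 5 min ambient → add FLSN-HOX-A9 solution (50 nM) → spin → 30 min ambient → fluorescence polarization. Tris pH 7.5/NaCl/DTT/BSA buffer.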
Potency is read from the fitted curve at half-maximal effect.

Row | SMILES | Potency | activity change, negative = inhibition
1 | CSc1nsc(/C=C/Nc2ccc(C)cc2)c1C#N | inconclusive: 28.2 µM [fluorescent, side channel, partial curve] | 
2 | Cc1ccc[n+](-c2nc([O-])sc2C=O)c1 | inconclusive: 31.6 µM [fluorescent, side channel, partial curve] | 
3 | COc1cccc(NC(=O)Nc2ccc3c(c2)OCO3)c1 | inconclusive: 11.2 µM [quencher, side channel, single point] | 
4 | COc1ccc(-c2csc(NC(=O)c3ccccc3NS(=O)(=O)c3ccc(C)cc3)n2)cc1 |  | inactive: 0.428%
5 | Cc1ccc(SCC(=O)N2c3ccccc3Sc3ccccc32)cc1 | inconclusive: 8.91 µM [inhibitor, single point] | 
6 | Cc1ccc2nc(Nc3nc(CSc4nnc(C)s4)cc(=O)[nH]3)nc(C)c2c1 | inconclusive: 1.12 µM [inhibitor, full curve, poor fit] | 
7 | C/C(=N\NC(=O)COc1ccc2ccccc2c1)c1cccs1 | inconclusive: 3.55 µM [quencher, side channel, partial curve] | 
8 | CCOc1ccc(C2=NNC(c3cccnc3)=Nc3ccc(OC)cc32)cc1 |  | inactive: -0.257%
9 | COc1cccc(Nc2cc(C)nc3nc(C)nn23)c1 | inconclusive: 11.2 µM [inhibitor, partial curve] | 
10 | CCOc1ncccc1C(=O)N1CCN(S(=O)(=O)c2ccccc2)CC1 | inconclusive: 10 µM [quencher, side channel, single point] | 
11 | CCCN1C(=O)c2cc(C(=O)Nc3ccccc3CC)ccc2C1O (configuration not stated) | inconclusive: 28.2 µM [fluorescent, side channel, partial curve] | 
12 | COc1ccc(N2CCN(C(C)C(=O)N3CC(C)OC(C)C3)CC2)cc1 (configuration not stated) | inconclusive: 112 µM [quencher, side channel, partial curve, poor fit] | 
13 | NS(=O)(=O)c1ccc(NC(=S)NCc2cccc(Cl)c2)cc1 |  | inactive: -3.16%
14 | CCOc1ccc(S(=O)(=O)N2CCC(C(=O)NCC3CCCO3)CC2)cc1 (configuration not stated) | inconclusive: 6.31 µM [quencher, side channel, partial curve] | 
15 | Cc1ccc(Cn2c(=N)c(C(=O)NC3CCCCC3)cc3c(=O)n4ccccc4nc32)cc1 |  | inactive: 7.43%
16 | CCOC(=O)c1c(C)nc2ncccn12 |  | inactive: -3.7%
17 | CCOc1ccc(CN2C(=O)c3ccccc3C2=O)cc1C(=O)O | inconclusive: 7.08 µM [fluorescent, side channel, full curve] | 
18 | Cc1cc(-c2ccccc2)nc(-c2ccccc2)c1C | inconclusive: 35.5 µM [fluorescent, side channel, single point] | 
19 | Cc1cccc(C2Nc3ccccc3C(=O)N2CCc2ccccc2)n1 (configuration not stated) |  | inactive: 7.66%
20 | CCCCC(NC(=O)CCc1c(C)c2cc3c4c(oc3c(C)c2oc1=O)CCCC4)C(=O)O (configuration not stated) | inconclusive: 8.91 µM [inhibitor, single point] | 
21 | Cc1cc(C)nc(SCC(=O)Nc2ncc(C(F)(F)F)cc2Cl)n1 | inconclusive: 89.1 µM [inhibitor, single point] | 

Row | SMILES | Potency | activity change, negative = inhibition
22 | Cc1cc(N2CCOCC2)nc2ccc(NC(=S)NCCN(C)C)cc12 | inconclusive: 31.6 µM [inhibitor, single point] | 
23 | N/C(=N\OC(=O)c1cccc2ccccc12)c1ccc(Br)cc1 | inconclusive: 20 µM [fluorescent, side channel, partial curve, poor fit] | 
24 | O=C(Nc1cccc(S(=O)(=O)N2CCCCC2)c1)c1ccccc1NS(=O)(=O)c1ccc(F)cc1 |  | inactive: -4.62%
25 | CCOC(=O)C1(C)/C(=N/Nc2cccc(Cl)c2)C(=O)C(=O)N1c1ccccc1 (configuration not stated) | inconclusive: 35.5 µM [inhibitor, single point] | 
26 | NC(=O)CSc1nnc(NC(=O)c2ccc(Br)o2)s1 | inconclusive: 89.1 µM [fluorescent, side channel, single point] | 
27 | CC1CCC(NC(=O)c2ccc3c(c2)OCO3)CC1 (configuration not stated) | inconclusive: 7.94 µM [inhibitor, partial curve] | 
28 | CSc1ccc(-c2sc(Nc3cccc4ccccc34)n[n+]2-c2ccccc2)cc1 | inconclusive: 25.1 µM [quencher, side channel, partial curve] | 
29 | COc1ccc(NS(=O)(=O)c2cccc(NC(=O)c3ccc(Cl)nc3)c2)cc1 | inconclusive: 89.1 µM [inhibitor, single point] | 
30 | CCOc1ccc(S(=O)(=O)N2CCCC(C(=O)NCc3ccccc3)C2)cc1 (configuration not stated) | inconclusive: 5.01 µM [quencher, side channel, partial curve] | 
31 | COc1ccc2c(c1OC)C(=O)OC2c1c(O)nc(SC)n(-c2ccccc2)c1=O (configuration not stated) | inconclusive: 31.6 µM [inhibitor, single point] | 
32 | COc1cc(/C=C(/C#N)c2ccc(F)cc2)ccc1OCc1ccc(C(=O)O)o1 | inconclusive: 31.6 µM [inhibitor, partial curve] | 
33 | COc1ccccc1C(=O)NNC(=O)CN1C(=O)c2ccccc2C1=O | inconclusive: 10 µM [fluorescent, side channel, single point] | 
34 | Cc1[nH]nc2c1C(c1ccoc1)C(C#N)=C(N)O2 (configuration not stated) | inconclusive: 89.1 µM [inhibitor, single point] | 
35 | O=C(O)c1cccc(Nc2nc(-c3cc4ccccc4oc3=O)cs2)c1 | inconclusive: 17.8 µM [fluorescent, side channel, full curve, poor fit] | 
36 | CCN(CC(=O)Nc1ccccc1C(F)(F)F)C(=O)CCc1nc2ccccc2c(=O)[nH]1 | inconclusive: 31.6 µM [fluorescent, side channel, single point] | 
37 | c1ccc2c(c1)Cc1cc3ccccc3nc1-2 | inconclusive: 63.1 µM [fluorescent, side channel, single point] | 
38 | COC(=O)c1c(Cl)c2n3ccccc3c(C)c(-c3ccccc3)c-2c1C(=O)OC | inconclusive: 63.1 µM [inhibitor, single point] | 
39 | COC(=O)C1=CN(CCCN2CCCC2=O)C=C(C(=O)OC)C1c1ccccc1C(F)(F)F | inconclusive: 6.31 µM [inhibitor, single point] | 
40 | O=C(CN(C(=O)CNC(=O)c1ccco1)c1cccc(F)c1)NC1CCCCC1 | inconclusive: 56.2 µM [fluorescent, side channel, partial curve] | 
41 | Cc1ccc(OCC(=O)Nc2ccc(C(=O)O)cc2NC(=O)COc2ccc(C)c(C)c2)cc1C |  | inactive: 16.9%
42 | CCOC(=O)c1ccc(-n2cc(C(=O)c3cccnc3)nn2)cc1 |  | inactive: -14.4%

Taken from the listing for reference:
Row | SMILES | Potency | activity change, negative = inhibition
23 | N/C(=N\OC(=O)c1cccc2ccccc12)c1ccc(Br)cc1 | inconclusive: 20 µM [fluorescent, side channel, partial curve, poor fit] | 
24 | O=C(Nc1cccc(S(=O)(=O)N2CCCCC2)c1)c1ccccc1NS(=O)(=O)c1ccc(F)cc1 |  | inactive: -4.62%

Going on with the list:

Row | SMILES | Potency | activity change, negative = inhibition
43 | CN(C)S(=O)(=O)c1cccc(NC(=O)CC23CC4CC(CC(C4)C2)C3)c1 | inconclusive: 89.1 µM [quencher, side channel, single point] | 
44 | O=C(c1ccc(S(=O)(=O)N2CCCC2)cc1)N1CCC(CN2C(=O)c3cccc4cccc(c34)C2=O)CC1 |  | inactive: -2.77%
45 | CC(C)(C)c1nnc(N/N=C/c2cc(Br)ccc2O)n(N)c1=O | inconclusive: 2 µM [quencher, side channel, full curve] | 
46 | O=C(Cc1ccc([N+](=O)[O-])cc1)NCc1cccnc1 |  | inactive: -1.36%
47 | CCNC(=O)CSC1=N/C(=C\c2ccc(O)c(OCC)c2)C(=O)N1c1ccc(OC(F)F)cc1 | inconclusive: 15.8 µM [fluorescent, side channel, partial curve] | 
48 | CCOC(=O)c1c(-c2ccc(C)cc2)csc1NC(=O)c1cc2ccccc2oc1=O |  | inactive: 8.03%
49 | Cc1c(C(=O)Oc2ccc(-c3cnc4ccccc4n3)cc2)cccc1[N+](=O)[O-] | inconclusive: 28.2 µM [quencher, side channel, partial curve] | 
50 | O=c1c2oc3nc4c(cc3c2ncn1CCCc1ccccc1)CCCC4 | inconclusive: 15.8 µM [inhibitor, partial curve] | 
51 | O=C1c2cccc3cc([N+](=O)[O-])cc(c23)C(=O)N1CCN1CCCC1 | inconclusive: 35.5 µM [quencher, side channel, partial curve] | 
52 | COc1cc(/C=C(\C#N)C(=O)N2CCc3ccccc32)ccc1O | inconclusive: 39.8 µM [fluorescent, side channel, single point] | 
53 | O=C(N/N=C/c1ccccc1C(=O)O)c1ccncc1 |  | inactive: -0.23%
54 | CCC(=O)Nc1ccc(N2CCOCC2)c(S(=O)(=O)Nc2ccc(OC)cc2)c1 | inconclusive: 2.82 µM [fluorescent, side channel, full curve] | 
55 | O=C1NC(=S)S/C1=C/c1ccc(N2CCOCC2)o1 | inconclusive: 22.4 µM [fluorescent, side channel, partial curve] | 
56 | CCCCN(C)C(=O)C1CCN(Cc2ccc(OCc3ccccc3)cc2)CC1 |  | inactive: -1.63%
57 | CCOc1nc(-c2ccc(C)cc2)ccc1-c1noc(COC)n1 |  | inactive: 3.59%
58 | COc1cccc(/C=C(\C#N)c2nc3ccccc3[nH]2)c1OCC(=O)O | inconclusive: 3.55 µM [inhibitor, full curve, poor fit] | 
59 | COc1ccc(NC(=O)c2ccccc2NC(=O)COc2ccccc2)cc1 | inconclusive: 1.26 µM [fluorescent, side channel, partial curve, poor fit] | 
60 | O=C(NCc1ccccc1)C(c1ccccc1)N(C(=O)c1csnn1)c1ccc(F)cc1 (configuration not stated) |  | inactive: 21.8%
61 | Cn1c(CC(=O)NC(C)(C)CO)c(Sc2ccccc2)c2ccccc21 | inconclusive: 1.41 µM [quencher, side channel, full curve, poor fit] | 
62 | C/C(=N\OCC(=O)OC(C)C(=O)Nc1ccc(C(N)=O)cc1)c1ccc2c(c1)OCO2 (configuration not stated) | inconclusive: 7.94 µM [fluorescent, side channel, single point] | 
